The test can be described thus: qHTS Assay for Lipid Storage Modulators in Drosophila S3 Cells.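 For cell number change: cells counted by Cell Tracker Red CMTPX staining in the red channel.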 As to conditions: BODIPY lipid droplet fluorescence, 18-24 h; for cell number change: measured here: cell count max response, cells fed with added oleic acid. Summed up:
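Laser-scanning cytometry quantifies lipid droplet accumulation (500–530 nm total intensity; droplet/cell object ratio) in oleic acid-fed (400 uM added) Drosophila S3 cells treated with a concentration series. 20 uM Triacsin C defined 100% inhibition.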
On the technique in general: In qHTS, concentration-response curves come from the screen itself.

[1] abbreviates: measured here: lipid fluorescence (Fed channel) AC50, cells fed with added oleic acid.
[2] abbreviates: measured here: cell number channel AC50, cells fed with added oleic acid.

The other results are listed elsewhere or left out. The main result of the screen is listed elsewhere. These columns were measured beside it and carry no call. The list favours compounds with an active or inconclusive main result. Words in brackets tell the shape of the fitted curve; partial curves, single points and poor fits give uncertain potencies.

What is called AC50 is the midpoint of the concentration-response curve, whichever way the signal moves. A higher AC50 goes with activity only at high concentration.

For the molecule `Cc1ccc(CN2CCSc3ccc(C(=O)NCCCN4CCN(C)CC4)cc32)cc1`, the cell number change was -6.6%. Further, under setting [1], the AC50 was 18.4 µM [rising, partial curve].

On to `O=C1C2C3C=CC(C2C(=O)N1c1ccccc1O)C1C2C(=O)N(c4ccccc4O)C(=O)C2C31` (centres undefined), for which the cell number change is -24.6%. The concentration at half-maximal activity (AC50) under setting [1] was 0.461 µM [falling, full curve].

Turning to `COc1cc(OC)c(NC(=O)N2CCOCC2)cc1Cl`, the cell number change is 3.7%. Besides, the half-maximal activity concentration (AC50) under setting [1] is 29.1 µM [rising, single point].

As to `N#Cc1nc(COc2ccccc2Cl)oc1NCc1ccc(F)cc1`, the cell number change was -22.8%. Also, the half-maximal activity concentration (AC50) under setting [1] was 29.1 µM [falling, single point].

`CN(C(=O)C1CCOC1)c1nnc(-c2cccnc2)s1` (centres undefined): the concentration at half-maximal activity (AC50) under setting [1] is 0.00461 µM [falling, full curve, poor fit].

Take `COc1cccc(OC)c1C(=O)OCC(=O)NC(=O)NCc1ccccc1`: the cell number change was determined as 51.6%. Besides, under setting [2], the AC50 was 16.4 µM [rising, single point].

For the molecule `CC(OCC(O)CNCC1COc2ccccc2O1)c1ccc(Cl)cc1` (centres undefined), the cell number change was determined as 21.5%. The concentration at half-maximal activity (AC50) under setting [1] is 23.1 µM [rising, single point].

Take `COc1ccccc1NC(=S)NC(=O)Cc1ccc(Cl)cc1`: the cell number change came to 16.5%. The concentration at half-maximal activity (AC50) under setting [1] was 29.1 µM [falling, single point].

For `Cc1cccc(C)c1NC(=O)/C(C#N)=C/c1ccc(-c2ccc(C(=O)O)cc2)o1`, the cell number change was 14.3%.

As for `CSc1nsc(SCC(=O)N2CCCCC2)n1`, the cell number change was found to be 2.86%. Besides, the concentration at half-maximal activity (AC50) under setting [2] was 3.66 µM [falling, single point]. For the same molecule, under setting [1], the AC50 was 3.66 µM [falling, single point].

Regarding `CC(=O)c1c(N2CCN(C)CC2)nc(=S)n(-c2cc(C)ccc2C)c1C`, the cell number change is 12.3%.

On to `CCCOc1ccc(N2C(=O)CC(NCc3cccnc3)C2=O)cc1` (centres undefined), for which the cell number change is -5.98%. The half-maximal activity concentration (AC50) under setting [1] is 0.184 µM [rising, full curve, poor fit].

Consider `Cc1cccc(NC(=O)CCc2c(C)nn(-c3ccc(N4CCCCC4)nn3)c2C)c1`, for which the cell number change is -0.306%. Under setting [1], the AC50 is 0.58 µM [falling, partial curve, poor fit].

Take `COc1cc(C(=O)N(Cc2ccco2)Cc2cc3ccccc3[nH]c2=O)cc(OC)c1OC`: the cell number change worked out at 16.6%. The half-maximal activity concentration (AC50) under setting [1] was 2.06 µM [rising, full curve].

For the molecule `COc1ccc(C2=CC(=O)OC3(CCCC3)O2)cc1`, the cell number change is 69.3%. Besides, the AC50 under setting [2] is 23.1 µM [rising, single point].

Regarding `Cc1oc(-c2ccccc2)cc1C(=O)Nc1ccc(N(C)C)cc1`, the cell number change was -18%.

As to `COc1ccc(N2CCN(C(=O)c3cc(=O)c4cc(C)c(C)cc4o3)CC2)cc1`, the cell number change came out at 14.2%. Under setting [1], the concentration at half-maximal activity (AC50) was 6.51 µM [rising, partial curve].

Take `COc1cc(C)nc(N2CCCC(C(=O)NCC(C)C)C2)n1` (centres undefined): the cell number change was determined as 18%. In addition, under setting [1], the concentration at half-maximal activity (AC50) was 16.4 µM [rising, partial curve, poor fit].

As to `C1CCc2nnc(C3CC3)n2CC1`, the cell number change is 8.01%. The half-maximal activity concentration (AC50) under setting [1] is 0.1 µM [rising, full curve, poor fit].

Take `Nc1n[nH]c(C2CC2)c1N=Nc1ccc(Cl)c(Cl)c1`: the cell number change was -25.7%.

Regarding `Cc1cccc2cc3c(NC(=O)c4ccccn4)nn(C)c3nc12`, the cell number change is 30.1%. Under setting [2], the AC50 is 0.206 µM [rising, full curve, poor fit]. Also, under setting [1], the AC50 was 0.259 µM [rising, full curve].

As to `Cc1nc(Cl)cc(CS(=O)(=O)c2ccc(Cl)cc2)n1`, the cell number change was -36.9%. Further, the AC50 under setting [2] is 0.00651 µM [falling, full curve]. Also, the AC50 under setting [1] is 0.00517 µM [falling, full curve, poor fit].

Turning to `COc1cccc(CNC(=O)CCNS(=O)(=O)c2ccc(Br)s2)c1`, the cell number change turned out to be 1.74%.

Take `O=C(NCc1cccc(C(F)(F)F)c1)c1ccc2c(c1)OCCO2`: the cell number change worked out at 34%.

As to `S=c1[nH]nc(COc2ccccc2)n1/N=C/c1ccccc1Cl`, the cell number change was -44.3%. Further, the AC50 under setting [2] was 14.6 µM [falling, single point].

For the molecule `CC(C)(C)c1ccc(OCC(=O)N/N=C/C2CC=CCC2)cc1` (centres undefined), the cell number change is -40.7%. The concentration at half-maximal activity (AC50) under setting [2] is 29.1 µM [falling, single point].

`CCOC(=O)C1=C(C)NC(C)=C(C(=O)OCC)C1C(=O)OCC(=O)N1CC(C)OC(C)C1` (centres undefined): the cell number change was -25.8%. For the same molecule, the AC50 under setting [1] is 13 µM [rising, single point].

With `CC(SCc1ccccc1)C(=O)Nc1ccc2c(c1)OCO2` (centres undefined), under setting [1], the half-maximal activity concentration (AC50) is 6.51 µM [falling, single point].

Turning to `CSc1nnc(-c2sc3cc(Cl)ccc3c2Cl)n1C`, the concentration at half-maximal activity (AC50) under setting [1] is 20.6 µM [falling, partial curve].

For `COCCCNC(=O)CNC(=S)N(Cc1ccc(F)cc1)C1CCCCC1`, the cell number change came to 11.7%. Besides, under setting [1], the AC50 was 2.91 µM [rising, partial curve].

For the molecule `COc1ccc(NS(=O)(=O)c2cc(NC(=O)c3ccc(=O)[nH]c3)ccc2C)cc1`, the cell number change is -10.8%. Moreover, under setting [1], the AC50 was 20.6 µM [rising, single point].

Turning to `O=[N+]([O-])c1ccccc1/C=N/n1c(C2CCCCC2)n[nH]c1=S`, the cell number change was -30%. Under setting [2], the AC50 was 0.00517 µM [falling, full curve, poor fit].

As to `Cc1occc1C(=O)NCCc1ccc(Cl)cc1`, the cell number change turned out to be 20.9%. Under setting [1], the AC50 is 29.1 µM [rising, single point].

Take `Nc1cccc2c1C(=O)N(Cc1nnc(-c3ccccc3Br)o1)C2=O`: the cell number change was 29.8%.

As to `O=C(CSc1nnnn1-c1cccnc1)NCc1cccs1`, the cell number change is 1.95%. Moreover, the AC50 under setting [1] is 0.461 µM [rising, full curve, poor fit].

As to `O=C(N/N=C/c1cccnc1)c1cc2ccccc2cc1O`, the cell number change was determined as 7.18%. For the same molecule, the half-maximal activity concentration (AC50) under setting [1] was 20 µM [rising, partial curve, poor fit].

In the case of `CN(C)S(=O)(=O)c1cc(NC(=O)c2ccc(-n3ccnc3)c([N+](=O)[O-])c2)ccc1Cl`, the AC50 under setting [1] was 14.6 µM [falling, partial curve].

Turning to `COc1ccc(N(C(=O)c2ccco2)S(=O)(=O)c2ccccc2)cc1`, the cell number change was determined as 12.8%.

On to `N#Cc1c(N)n(CCCN2CCOCC2)c2nc3ccccc3nc12`, for which the cell number change is 2.59%.

In the case of `COc1ccc(N(C(=O)c2ccco2)C(C(=O)NC2CCCC2)c2cccnc2)c(OC)c1` (centres undefined), the cell number change was found to be 9.52%.

Turning to `CC(=O)NCCc1nc2ccccc2n1CCCCOc1ccccc1`, the cell number change stood at 2.6%. Besides, under setting [1], the AC50 is 1.03 µM [rising, full curve, poor fit].

In the case of `COc1ccc(-c2c[n+](CC(=O)OC3CC(C)CCC3C(C)C)c3n2CCC3)cc1` (centres undefined), the cell number change is -54.7%. Besides, the AC50 under setting [2] is 4.61 µM [falling, full curve, poor fit]. Also, the AC50 under setting [1] was 4.61 µM [falling, full curve].

Values taken from PubChem BioAssay AID2685 (National Center for Advancing Translational Sciences (NCATS), 2010).
